No constants are given. Whether binding was seen depends on the method and setting. In cells and extracts the contact can be indirect. Some binding calls cover weakened binding; strength is not graded here.
Target: T1, NOLC1 (human (endogenous in MCF10A and CA1D)) (UniProt Q14978)
T1 sequence: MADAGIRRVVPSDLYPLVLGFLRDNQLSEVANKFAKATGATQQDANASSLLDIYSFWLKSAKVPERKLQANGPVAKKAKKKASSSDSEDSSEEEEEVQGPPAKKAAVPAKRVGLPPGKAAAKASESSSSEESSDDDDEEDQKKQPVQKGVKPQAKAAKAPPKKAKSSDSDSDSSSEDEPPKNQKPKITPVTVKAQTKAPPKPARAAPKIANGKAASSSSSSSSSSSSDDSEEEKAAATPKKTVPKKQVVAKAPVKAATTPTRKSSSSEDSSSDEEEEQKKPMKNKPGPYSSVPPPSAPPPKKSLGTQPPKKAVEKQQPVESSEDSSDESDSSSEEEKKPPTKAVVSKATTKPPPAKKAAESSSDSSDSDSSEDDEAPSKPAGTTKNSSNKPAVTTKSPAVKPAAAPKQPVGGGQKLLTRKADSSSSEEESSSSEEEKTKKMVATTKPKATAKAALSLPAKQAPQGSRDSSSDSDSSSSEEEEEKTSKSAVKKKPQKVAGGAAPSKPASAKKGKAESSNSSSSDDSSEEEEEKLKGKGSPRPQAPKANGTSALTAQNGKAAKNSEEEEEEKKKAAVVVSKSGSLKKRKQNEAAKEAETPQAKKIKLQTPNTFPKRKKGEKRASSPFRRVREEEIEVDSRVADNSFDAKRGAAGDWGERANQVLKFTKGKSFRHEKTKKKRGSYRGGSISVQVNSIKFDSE
Test: co-IP; endogenous NOLC1 and WDR26 in MCF10A and CA1D cells kept in growth media 48 h; cells with lncRNA (TROLL-2, TROLL-3) overexpression or siRNAs; 50 mM Tris-HCl pH 8.0, 150 mM NaCl, 1 mM EDTA, 1% NP-40; western blot

Amino acid sequences for entries named in this document (tags omitted).
UniProt Q9H7D7: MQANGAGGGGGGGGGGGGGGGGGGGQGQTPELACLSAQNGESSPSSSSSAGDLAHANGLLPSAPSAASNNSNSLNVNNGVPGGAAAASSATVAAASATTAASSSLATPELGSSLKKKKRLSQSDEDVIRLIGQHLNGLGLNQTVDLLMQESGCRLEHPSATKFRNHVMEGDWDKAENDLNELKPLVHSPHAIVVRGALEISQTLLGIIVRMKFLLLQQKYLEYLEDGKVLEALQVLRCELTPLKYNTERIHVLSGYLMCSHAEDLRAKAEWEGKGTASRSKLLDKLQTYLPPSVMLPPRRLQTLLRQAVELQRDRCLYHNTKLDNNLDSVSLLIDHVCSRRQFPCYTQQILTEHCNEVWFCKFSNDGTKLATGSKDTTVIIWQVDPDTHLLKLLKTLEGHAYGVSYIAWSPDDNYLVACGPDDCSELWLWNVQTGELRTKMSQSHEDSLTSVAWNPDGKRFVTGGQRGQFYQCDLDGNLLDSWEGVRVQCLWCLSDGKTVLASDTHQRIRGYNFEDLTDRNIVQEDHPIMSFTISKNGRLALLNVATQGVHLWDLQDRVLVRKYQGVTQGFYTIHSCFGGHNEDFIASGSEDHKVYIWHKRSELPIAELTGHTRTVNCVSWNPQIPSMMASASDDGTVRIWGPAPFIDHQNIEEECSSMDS

WDR26 (endogenous) (from UniProt Q9H7D7 1-661)
binding: binds
